Measured values reported in article PMC10579421.
Results are given in words; binding and its absence hold for the method and conditions named. Binding seen in cells or lysates may run through a third protein. Some binding calls cover weakened binding; strength is not graded here.

The chains behind the UniProt entries cited, without tags or fusion partners.
UniProt O15379: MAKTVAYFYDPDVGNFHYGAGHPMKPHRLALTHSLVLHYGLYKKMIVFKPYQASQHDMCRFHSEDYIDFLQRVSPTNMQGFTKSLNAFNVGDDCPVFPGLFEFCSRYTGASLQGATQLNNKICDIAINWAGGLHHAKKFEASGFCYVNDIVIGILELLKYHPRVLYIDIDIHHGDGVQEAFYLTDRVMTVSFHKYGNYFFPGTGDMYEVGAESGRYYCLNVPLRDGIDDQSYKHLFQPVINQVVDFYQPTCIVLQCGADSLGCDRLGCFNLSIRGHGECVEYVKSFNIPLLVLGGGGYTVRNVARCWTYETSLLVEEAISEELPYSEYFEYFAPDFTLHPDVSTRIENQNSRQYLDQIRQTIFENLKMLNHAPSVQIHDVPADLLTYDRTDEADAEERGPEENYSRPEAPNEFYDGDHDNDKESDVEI

Target: T1, JunB (human (endogenous in THP-1)) (UniProt P17275)
T1 sequence: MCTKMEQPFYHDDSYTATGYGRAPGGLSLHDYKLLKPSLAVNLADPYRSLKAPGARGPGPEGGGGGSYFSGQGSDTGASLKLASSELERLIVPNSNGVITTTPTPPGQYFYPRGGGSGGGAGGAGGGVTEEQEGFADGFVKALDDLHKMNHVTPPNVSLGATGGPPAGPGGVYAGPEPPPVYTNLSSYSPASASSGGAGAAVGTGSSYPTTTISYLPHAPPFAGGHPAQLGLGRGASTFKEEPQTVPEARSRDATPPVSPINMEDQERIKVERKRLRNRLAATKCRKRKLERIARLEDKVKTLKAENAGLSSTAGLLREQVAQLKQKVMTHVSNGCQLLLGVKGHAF
Assay: co-IP

**Q.** “HDAC3 (from UniProt O15379 1-428) (enzyme)” was tested. Which binding did it give?
**A.** binds
